This is an account of results in paper doi:10.1101/2024.01.03.574021.

The chains behind the UniProt entries cited, without tags or fusion partners.
UniProt Q04206: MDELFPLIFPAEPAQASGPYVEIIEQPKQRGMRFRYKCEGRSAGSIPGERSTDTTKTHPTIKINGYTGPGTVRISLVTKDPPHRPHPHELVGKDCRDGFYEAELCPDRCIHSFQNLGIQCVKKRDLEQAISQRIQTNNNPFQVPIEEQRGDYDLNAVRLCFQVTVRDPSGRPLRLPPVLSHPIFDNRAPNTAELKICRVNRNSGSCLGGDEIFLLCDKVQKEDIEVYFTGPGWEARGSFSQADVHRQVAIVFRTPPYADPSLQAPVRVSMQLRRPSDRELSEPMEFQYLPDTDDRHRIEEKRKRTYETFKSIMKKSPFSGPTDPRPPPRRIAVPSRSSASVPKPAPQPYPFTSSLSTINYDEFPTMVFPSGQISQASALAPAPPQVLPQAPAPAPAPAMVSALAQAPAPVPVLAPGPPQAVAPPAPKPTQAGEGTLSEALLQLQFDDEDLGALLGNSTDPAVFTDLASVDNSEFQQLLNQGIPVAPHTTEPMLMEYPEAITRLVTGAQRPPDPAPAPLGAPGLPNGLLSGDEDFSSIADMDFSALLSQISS
UniProt P49715: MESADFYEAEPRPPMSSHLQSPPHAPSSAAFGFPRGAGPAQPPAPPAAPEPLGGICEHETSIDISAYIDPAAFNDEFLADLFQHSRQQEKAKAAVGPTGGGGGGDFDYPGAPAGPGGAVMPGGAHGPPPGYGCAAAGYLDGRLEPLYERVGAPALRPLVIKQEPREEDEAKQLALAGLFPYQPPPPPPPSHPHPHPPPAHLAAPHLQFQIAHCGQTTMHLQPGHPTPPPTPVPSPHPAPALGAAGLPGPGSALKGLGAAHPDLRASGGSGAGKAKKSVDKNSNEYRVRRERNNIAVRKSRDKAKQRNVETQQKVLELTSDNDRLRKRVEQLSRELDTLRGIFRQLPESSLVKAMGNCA
UniProt Q92785: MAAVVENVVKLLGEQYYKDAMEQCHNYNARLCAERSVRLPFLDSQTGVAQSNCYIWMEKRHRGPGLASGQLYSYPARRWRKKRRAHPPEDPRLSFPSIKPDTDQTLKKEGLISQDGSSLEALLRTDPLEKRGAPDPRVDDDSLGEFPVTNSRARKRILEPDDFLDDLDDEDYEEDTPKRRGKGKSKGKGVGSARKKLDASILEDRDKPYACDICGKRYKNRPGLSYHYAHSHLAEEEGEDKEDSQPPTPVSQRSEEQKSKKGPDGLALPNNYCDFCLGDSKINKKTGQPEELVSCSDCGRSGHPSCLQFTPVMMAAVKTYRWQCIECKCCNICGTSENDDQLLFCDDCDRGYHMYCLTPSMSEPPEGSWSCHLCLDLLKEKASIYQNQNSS
UniProt Q13547: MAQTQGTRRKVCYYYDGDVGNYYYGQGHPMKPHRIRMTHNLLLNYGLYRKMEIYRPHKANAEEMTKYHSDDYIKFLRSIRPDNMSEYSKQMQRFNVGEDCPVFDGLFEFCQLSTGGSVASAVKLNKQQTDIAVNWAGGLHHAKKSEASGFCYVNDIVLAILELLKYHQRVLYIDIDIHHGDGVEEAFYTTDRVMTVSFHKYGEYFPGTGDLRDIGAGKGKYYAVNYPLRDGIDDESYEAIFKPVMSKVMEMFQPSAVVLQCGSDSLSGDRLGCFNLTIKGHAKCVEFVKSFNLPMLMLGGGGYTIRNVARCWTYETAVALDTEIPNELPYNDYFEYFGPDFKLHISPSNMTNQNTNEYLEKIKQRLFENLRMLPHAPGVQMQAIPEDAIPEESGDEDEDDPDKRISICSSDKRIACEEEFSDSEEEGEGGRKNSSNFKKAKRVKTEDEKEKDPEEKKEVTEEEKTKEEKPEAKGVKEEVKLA
UniProt P51617: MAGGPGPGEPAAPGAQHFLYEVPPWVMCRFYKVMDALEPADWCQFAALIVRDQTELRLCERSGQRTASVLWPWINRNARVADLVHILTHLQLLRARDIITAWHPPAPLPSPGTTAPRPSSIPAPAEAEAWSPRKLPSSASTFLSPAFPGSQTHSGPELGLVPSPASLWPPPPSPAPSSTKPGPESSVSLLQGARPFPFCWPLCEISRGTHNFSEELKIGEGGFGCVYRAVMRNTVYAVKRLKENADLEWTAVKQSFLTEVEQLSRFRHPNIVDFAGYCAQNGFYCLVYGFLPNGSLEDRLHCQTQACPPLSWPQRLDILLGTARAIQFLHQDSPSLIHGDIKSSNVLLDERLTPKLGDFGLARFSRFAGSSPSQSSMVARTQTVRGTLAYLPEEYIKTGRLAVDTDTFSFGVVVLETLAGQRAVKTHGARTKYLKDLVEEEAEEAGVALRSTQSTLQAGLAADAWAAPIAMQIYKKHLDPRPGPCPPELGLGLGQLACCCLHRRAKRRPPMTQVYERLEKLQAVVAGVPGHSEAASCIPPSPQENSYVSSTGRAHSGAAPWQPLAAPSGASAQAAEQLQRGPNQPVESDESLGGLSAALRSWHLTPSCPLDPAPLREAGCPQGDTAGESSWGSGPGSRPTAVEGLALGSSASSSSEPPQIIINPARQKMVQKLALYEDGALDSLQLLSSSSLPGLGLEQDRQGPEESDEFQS
UniProt Q92830: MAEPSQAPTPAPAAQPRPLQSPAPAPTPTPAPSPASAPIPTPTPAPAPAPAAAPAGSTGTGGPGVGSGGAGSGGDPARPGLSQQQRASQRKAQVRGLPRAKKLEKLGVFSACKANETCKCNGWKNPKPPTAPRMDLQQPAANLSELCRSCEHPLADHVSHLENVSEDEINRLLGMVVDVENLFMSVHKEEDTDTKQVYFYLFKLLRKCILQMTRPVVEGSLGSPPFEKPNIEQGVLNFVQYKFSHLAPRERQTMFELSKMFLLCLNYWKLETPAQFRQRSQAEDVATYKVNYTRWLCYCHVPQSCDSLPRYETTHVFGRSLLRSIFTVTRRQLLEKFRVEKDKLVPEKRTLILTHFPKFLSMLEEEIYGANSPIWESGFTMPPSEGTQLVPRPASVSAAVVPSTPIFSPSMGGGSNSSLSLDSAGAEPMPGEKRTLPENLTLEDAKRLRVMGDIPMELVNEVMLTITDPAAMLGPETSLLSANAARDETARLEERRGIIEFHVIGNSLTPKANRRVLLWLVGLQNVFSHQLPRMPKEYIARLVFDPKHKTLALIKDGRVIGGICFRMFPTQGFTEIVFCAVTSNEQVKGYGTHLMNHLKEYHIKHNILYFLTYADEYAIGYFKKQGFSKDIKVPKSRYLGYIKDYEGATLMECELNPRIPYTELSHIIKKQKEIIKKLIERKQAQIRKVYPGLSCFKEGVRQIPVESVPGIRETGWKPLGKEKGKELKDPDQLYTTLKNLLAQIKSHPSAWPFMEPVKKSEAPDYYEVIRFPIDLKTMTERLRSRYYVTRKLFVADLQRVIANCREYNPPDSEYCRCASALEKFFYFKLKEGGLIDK
UniProt Q9BTK6: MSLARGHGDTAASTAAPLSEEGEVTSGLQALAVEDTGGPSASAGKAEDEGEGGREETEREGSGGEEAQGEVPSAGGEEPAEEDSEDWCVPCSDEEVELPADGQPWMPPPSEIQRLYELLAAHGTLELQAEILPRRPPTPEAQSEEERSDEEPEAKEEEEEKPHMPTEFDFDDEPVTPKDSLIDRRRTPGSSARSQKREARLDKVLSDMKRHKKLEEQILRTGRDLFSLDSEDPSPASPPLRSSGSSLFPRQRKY
UniProt Q6ZW49: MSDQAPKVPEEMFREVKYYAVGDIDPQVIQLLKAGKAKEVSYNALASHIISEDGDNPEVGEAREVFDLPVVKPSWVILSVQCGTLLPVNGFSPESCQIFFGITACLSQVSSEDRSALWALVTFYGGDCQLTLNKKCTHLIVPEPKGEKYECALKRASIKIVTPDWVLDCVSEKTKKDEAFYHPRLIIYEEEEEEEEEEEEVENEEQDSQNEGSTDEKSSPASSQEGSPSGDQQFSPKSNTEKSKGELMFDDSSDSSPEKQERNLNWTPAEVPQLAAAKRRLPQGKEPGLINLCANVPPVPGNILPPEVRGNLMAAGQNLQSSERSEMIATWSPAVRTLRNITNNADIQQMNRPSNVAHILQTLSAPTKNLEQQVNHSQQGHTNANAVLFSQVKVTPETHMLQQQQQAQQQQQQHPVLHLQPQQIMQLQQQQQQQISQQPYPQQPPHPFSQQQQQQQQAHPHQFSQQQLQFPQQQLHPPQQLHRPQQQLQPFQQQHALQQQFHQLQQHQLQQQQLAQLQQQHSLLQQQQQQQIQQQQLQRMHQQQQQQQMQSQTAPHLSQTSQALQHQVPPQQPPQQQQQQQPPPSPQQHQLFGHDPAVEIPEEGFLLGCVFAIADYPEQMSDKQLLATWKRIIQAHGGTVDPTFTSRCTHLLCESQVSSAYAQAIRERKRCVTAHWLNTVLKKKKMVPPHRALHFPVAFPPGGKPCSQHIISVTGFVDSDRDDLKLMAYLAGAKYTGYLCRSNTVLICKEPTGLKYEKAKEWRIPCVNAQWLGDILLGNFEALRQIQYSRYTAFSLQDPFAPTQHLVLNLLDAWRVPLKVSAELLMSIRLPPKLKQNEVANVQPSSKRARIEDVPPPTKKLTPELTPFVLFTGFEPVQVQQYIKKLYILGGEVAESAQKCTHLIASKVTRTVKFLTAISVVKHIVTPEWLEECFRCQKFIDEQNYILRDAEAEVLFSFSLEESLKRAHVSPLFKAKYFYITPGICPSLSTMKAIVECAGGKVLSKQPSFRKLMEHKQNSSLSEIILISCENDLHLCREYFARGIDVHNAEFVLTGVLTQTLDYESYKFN
UniProt O95365: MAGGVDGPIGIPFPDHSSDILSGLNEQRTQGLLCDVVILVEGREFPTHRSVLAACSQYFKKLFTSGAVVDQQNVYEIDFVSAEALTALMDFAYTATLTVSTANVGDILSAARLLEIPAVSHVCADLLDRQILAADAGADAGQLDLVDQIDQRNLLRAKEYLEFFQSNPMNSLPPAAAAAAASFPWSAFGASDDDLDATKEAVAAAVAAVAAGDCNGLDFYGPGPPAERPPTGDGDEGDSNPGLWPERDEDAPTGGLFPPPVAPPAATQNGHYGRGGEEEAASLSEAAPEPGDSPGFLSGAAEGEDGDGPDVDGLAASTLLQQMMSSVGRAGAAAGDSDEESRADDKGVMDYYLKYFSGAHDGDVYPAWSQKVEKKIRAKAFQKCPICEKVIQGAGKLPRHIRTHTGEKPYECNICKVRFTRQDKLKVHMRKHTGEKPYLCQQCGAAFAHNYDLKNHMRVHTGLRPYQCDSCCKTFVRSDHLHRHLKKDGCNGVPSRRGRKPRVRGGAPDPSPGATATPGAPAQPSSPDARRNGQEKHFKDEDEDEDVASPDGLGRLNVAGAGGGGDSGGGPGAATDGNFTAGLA
UniProt O15156: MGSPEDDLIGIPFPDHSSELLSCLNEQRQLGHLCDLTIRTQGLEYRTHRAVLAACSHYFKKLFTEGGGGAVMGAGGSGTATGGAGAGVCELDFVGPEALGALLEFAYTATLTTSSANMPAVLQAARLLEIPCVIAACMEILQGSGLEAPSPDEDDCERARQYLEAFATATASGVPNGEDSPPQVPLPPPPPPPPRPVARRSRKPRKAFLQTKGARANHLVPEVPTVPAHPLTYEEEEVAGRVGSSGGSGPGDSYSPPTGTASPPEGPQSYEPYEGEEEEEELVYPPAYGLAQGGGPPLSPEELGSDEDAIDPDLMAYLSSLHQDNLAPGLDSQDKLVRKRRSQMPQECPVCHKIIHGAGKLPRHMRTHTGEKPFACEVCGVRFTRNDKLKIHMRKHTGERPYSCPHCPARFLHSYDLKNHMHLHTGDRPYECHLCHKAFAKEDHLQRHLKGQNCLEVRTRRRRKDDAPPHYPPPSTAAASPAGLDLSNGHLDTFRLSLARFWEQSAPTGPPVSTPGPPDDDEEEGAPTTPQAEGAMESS
UniProt P19532: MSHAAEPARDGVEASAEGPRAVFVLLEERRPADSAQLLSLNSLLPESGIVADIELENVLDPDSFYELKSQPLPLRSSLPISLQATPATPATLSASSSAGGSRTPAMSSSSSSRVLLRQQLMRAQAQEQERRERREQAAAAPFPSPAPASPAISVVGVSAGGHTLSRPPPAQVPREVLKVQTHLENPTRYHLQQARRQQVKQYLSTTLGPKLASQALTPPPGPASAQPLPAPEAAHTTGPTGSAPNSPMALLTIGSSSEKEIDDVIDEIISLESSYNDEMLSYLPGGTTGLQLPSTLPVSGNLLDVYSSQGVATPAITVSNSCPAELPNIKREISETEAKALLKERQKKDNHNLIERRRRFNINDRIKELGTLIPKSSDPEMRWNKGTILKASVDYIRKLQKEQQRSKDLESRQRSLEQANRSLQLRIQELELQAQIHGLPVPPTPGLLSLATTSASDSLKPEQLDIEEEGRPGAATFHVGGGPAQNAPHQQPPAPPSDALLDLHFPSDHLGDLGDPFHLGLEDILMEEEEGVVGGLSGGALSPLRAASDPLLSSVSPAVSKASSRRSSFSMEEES

No constants are given. Whether binding was seen depends on the method and setting. Binding seen in cells or lysates may run through a third protein. Here binding means that the protein was enriched with, or labelled near, the bait; the list need not be complete.

Sequences and labels used below:
B1: ATF2 (protein, UniProt P15336 1-505)
chain: MKFKLHVNSARQYKDLWNMSDDKPFLCTAPGCGQRFTNEDHLAVHKHKHEMTLKFGPARNDSVIVADQTPTPTRFLKNCEEVGLFNELASPFENEFKKASEDDIKKMPLDLSPLATPIIRSKIEEPSVVETTHQDSPLPHPESTTSDEKEVPLAQTAQPTSAIVRPASLQVPNVLLTSSDSSVIIQQAVPSPTSSTVITQAPSSNRPIVPVPGPFPLLLHLPNGQTMPVAIPASITSSNVHVPAAVPLVRPVTMVPSVPGIPGPSSPQPVQSEAKMRLKAALTQQHPPVTNGDTVKGHGSGLVRTQSEESRPQSLQQPATSTTETPASPAHTTPQTQSTSGRRRRAANEDPDEKRRKFLERNRAAASRCRQKRKVWVQSLEKKAEDLSSLNGQLQSEVTLLRNEVAQLKQLLLAHKDCPVTAMQKKSGYHTADKDDSSEDISVPSSPHTEAIQHSSVSTSNGVSSTSKAEAVATSVLTQMADQSTEPALSQIVMAPSSQSQPSGS
B2: FOSL2 (protein, UniProt P15408 1-326)
chain: MYQDYPGNFDTSSRGSSGSPAHAESYSSGGGGQQKFRVDMPGSGSAFIPTINAITTSQDLQWMVQPTVITSMSNPYPRSHPYSPLPGLASVPGHMALPRPGVIKTIGTTVGRRRRDEQLSPEEEEKRRIRRERNKLAAAKCRNRRRELTEKLQAETEELEEEKSGLQKEIAELQKEKEKLEFMLVAHGPVCKISPEERRSPPAPGLQPMRSGGGSVGAVVVKQEPLEEDSPSSSSAGLDKAQRSVIKPISIAGGFYGEEPLHTPIVVTSTPAVTPGTSNLVFTYPSVLEQESPASPSESCSKAHRRSSSSGDQSSDSLNSPTLLAL
B3: p52 (NFKB2) (protein, UniProt Q00653)
chain: MESCYNPGLDGIIEYDDFKLNSSIVEPKEPAPETADGPYLVIVEQPKQRGFRFRYGCEGPSHGGLPGASSEKGRKTYPTVKICNYEGPAKIEVDLVTHSDPPRAHAHSLVGKQCSELGICAVSVGPKDMTAQFNNLGVLHVTKKNMMGTMIQKLQRQRLRSRPQGLTEAEQRELEQEAKELKKVMDLSIVRLRFSAFLRASDGSFSLPLKPVISQPIHDSKSPGASNLKISRMDKTAGSVRGGDEVYLLCDKVQKDDIEVRFYEDDENGWQAFGDFSPTDVHKQYAIVFRTPPYHKMKIERPVTVFLQLKRKRGGDVSDSKQFTYYPLVEDKEEVQRKRRKALPTFSQPFGGGSHMGGGSGGAAGGYGGAGGGGSLGFFPSSLAYSPYQSGAGPMGCYPGGGGGAQMAATVPSRDSGEEAAEPSAPSRTPQCEPQAPEMLQRAREYNARLFGLA

The first assay addresses p65(wt)-HA-miniTurbo (human) (UniProt Q04206). Kind of assay: proximity labelling.
With B1, the binding result is recorded as “binds”.

Turning to B2, the binding result was “binds”.

As for B3, the binding entry is on record as “binds”.

Another assay has the same target. Kind of assay: proximity labelling. This is another data set of the same source.
Turning to CEBPA (from UniProt P49715 1-358), the binding result was “binds”.

Turning to DPF1 (from UniProt Q92782 1-387), the binding result was “binds”.

On to DPF2 (from UniProt Q92785 1-391), for which the binding result was “binds”.

In the case of HDAC1 (from UniProt Q13547 1-482), the binding result was “binds”.

Turning to HDAC2 (from UniProt Q92769 1-488), the binding entry was “binds”.

Take IRAK1 (from UniProt P51617 1-712): the binding entry was “binds”.

Turning to JUN (from UniProt P05412 1-331), the binding result is reported as “binds”.

KAT2A (from UniProt Q92830 1-837): the binding result is “binds”.

Regarding MED15 (from UniProt Q96RN5 1-788), the binding result is given as “binds”.

As for NCOA6 (from UniProt Q14686 1-2063), the binding entry is “binds”.

On to PAGR1 (from UniProt Q9BTK6 1-254), for which the binding result was “binds”.

PAXIP1 (from UniProt Q6ZW49 1-1069): the binding entry is on record as “binds”.

For “TIP60 (KAT5) (from UniProt Q92993 1-513)”, the binding result is listed as “binds”.

For ZBTB7A (from UniProt O95365 1-584), the binding entry is recorded as “binds”.

Take ZBTB7B (from UniProt O15156 1-539): the binding entry is reported as “binds”.

For the molecule “microphthalmia-associated transcription factor (MITF) (from UniProt O75030 1-526)”, the binding result was “binds”.

As to “transcription factor E3 (TFE3) (from UniProt P19532 1-575)”, the binding entry was “binds”.
